The record followed here is PMC10450199.

The chains behind the UniProt entries cited, without tags or fusion partners.
UniProt O75475: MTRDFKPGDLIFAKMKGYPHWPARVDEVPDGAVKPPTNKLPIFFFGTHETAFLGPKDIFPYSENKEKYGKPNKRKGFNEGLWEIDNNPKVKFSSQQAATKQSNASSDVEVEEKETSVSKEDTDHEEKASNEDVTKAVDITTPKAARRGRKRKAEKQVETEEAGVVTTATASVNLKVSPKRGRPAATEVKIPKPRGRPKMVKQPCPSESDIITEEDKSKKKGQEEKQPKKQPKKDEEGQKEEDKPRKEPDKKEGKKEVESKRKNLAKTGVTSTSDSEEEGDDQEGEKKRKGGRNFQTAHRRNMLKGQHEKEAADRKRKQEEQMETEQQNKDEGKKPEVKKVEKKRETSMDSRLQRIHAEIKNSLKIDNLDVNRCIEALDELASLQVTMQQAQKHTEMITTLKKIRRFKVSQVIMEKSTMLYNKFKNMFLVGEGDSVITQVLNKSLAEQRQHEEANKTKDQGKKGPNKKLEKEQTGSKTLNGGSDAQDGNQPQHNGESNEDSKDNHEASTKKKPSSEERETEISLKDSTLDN
UniProt Q03164: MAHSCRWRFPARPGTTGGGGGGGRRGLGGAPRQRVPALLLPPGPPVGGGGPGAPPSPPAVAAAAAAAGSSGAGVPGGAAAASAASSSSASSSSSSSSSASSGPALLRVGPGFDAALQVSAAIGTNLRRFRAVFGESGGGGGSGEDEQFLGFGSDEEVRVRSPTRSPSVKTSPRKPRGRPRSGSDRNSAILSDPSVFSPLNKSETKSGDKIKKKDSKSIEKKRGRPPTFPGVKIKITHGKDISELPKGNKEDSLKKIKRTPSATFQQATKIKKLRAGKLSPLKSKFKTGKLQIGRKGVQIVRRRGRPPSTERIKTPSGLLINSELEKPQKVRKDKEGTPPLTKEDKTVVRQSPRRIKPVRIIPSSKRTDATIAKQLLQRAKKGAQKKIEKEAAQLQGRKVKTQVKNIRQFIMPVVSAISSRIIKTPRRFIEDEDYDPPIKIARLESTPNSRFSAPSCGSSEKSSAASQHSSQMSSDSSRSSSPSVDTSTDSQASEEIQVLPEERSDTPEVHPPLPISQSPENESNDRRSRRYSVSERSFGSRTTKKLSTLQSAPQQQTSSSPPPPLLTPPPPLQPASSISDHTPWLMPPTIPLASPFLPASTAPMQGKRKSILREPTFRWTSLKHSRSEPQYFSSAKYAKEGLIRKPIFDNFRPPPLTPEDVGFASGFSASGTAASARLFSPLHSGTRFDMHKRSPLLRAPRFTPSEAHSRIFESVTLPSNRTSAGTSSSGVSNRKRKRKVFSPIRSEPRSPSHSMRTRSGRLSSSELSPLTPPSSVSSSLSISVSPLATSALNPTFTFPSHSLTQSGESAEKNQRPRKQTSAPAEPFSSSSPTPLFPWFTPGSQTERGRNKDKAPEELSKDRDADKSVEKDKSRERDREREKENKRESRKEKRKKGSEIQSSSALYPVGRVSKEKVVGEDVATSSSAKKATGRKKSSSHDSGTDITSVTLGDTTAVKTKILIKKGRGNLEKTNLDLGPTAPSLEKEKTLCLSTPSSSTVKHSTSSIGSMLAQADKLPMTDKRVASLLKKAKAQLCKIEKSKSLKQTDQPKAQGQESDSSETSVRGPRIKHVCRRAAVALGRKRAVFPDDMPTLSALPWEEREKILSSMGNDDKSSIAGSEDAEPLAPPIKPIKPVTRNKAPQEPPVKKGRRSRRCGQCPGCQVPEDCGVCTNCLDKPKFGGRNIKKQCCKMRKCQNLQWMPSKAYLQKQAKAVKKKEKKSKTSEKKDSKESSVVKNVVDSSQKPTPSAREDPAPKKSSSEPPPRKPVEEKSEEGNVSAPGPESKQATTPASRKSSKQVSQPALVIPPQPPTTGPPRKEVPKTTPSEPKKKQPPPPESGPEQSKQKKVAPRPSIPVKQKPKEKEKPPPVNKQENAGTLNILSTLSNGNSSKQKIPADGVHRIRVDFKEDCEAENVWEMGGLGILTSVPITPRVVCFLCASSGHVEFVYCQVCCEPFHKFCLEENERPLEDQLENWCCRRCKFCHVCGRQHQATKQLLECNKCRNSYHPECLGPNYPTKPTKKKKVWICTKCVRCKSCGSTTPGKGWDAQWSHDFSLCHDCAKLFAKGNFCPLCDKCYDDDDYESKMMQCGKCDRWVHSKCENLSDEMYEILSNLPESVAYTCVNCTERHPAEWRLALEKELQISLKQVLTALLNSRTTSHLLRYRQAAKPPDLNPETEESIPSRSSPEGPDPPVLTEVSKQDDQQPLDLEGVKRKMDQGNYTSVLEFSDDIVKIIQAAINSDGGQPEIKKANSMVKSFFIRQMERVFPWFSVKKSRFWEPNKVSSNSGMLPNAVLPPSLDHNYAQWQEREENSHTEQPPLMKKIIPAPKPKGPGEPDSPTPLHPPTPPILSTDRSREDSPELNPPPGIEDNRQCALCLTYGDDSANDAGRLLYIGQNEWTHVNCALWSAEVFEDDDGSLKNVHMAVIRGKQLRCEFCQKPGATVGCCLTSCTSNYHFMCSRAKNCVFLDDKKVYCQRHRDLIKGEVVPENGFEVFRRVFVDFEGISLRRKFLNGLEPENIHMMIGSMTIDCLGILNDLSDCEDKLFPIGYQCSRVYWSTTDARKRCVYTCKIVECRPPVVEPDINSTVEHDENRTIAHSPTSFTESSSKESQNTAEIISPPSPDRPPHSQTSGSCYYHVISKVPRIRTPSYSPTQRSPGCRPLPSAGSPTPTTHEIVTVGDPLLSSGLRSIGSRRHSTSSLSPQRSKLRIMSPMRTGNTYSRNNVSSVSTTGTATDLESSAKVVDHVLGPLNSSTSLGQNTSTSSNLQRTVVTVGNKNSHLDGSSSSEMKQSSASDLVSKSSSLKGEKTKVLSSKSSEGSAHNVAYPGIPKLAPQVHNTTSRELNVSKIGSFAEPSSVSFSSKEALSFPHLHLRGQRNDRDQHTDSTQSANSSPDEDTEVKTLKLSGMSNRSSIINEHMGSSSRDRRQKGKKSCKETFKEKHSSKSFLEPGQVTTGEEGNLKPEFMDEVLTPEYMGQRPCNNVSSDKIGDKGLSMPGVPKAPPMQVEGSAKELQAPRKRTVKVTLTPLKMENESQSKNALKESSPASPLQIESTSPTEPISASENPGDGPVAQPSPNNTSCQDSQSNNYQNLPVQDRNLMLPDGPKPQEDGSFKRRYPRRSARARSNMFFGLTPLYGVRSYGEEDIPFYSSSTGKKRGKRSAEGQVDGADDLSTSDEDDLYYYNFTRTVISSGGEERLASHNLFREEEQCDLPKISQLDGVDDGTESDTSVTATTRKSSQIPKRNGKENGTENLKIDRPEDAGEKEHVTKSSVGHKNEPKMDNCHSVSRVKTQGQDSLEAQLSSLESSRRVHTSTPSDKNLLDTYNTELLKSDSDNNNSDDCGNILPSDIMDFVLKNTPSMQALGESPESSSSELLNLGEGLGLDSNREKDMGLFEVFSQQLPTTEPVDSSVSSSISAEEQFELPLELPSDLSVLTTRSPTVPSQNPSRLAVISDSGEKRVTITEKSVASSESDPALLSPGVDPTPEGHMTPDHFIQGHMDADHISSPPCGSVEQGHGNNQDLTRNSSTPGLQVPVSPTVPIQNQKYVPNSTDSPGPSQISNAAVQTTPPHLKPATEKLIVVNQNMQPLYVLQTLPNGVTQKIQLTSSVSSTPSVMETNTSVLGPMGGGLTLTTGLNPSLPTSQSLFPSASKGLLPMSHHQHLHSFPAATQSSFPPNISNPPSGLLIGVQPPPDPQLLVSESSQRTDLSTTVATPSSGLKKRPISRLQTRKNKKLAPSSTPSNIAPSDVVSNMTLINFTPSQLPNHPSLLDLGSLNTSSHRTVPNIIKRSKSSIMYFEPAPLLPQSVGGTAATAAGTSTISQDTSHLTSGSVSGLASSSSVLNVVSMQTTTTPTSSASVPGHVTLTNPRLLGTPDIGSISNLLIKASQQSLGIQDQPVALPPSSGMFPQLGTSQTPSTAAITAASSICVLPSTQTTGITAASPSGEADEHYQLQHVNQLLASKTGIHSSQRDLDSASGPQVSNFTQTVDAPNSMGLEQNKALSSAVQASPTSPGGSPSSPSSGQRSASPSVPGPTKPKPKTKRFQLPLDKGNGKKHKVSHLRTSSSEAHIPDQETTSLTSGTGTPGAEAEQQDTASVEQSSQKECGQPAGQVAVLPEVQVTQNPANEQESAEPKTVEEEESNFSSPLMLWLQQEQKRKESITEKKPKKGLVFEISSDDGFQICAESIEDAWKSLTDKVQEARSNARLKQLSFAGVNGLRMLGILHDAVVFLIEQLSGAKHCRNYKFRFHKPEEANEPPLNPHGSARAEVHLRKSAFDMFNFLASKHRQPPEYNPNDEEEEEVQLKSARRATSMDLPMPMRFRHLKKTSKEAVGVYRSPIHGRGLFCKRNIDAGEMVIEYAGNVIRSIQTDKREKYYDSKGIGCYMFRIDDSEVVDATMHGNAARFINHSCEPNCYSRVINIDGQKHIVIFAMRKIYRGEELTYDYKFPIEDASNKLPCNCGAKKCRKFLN

Where a chain is given by its changes, count along the chain named. These are yes or no findings as the source states them, for the method shown. In cells and extracts the contact can be indirect. Some binding calls cover weakened binding; strength is not graded here. Where a sequence is shown, tags or fusion partners need not be part of it.

Assay [1] has as its target T1, mutant (Mut) Menin-Flag M278W (UniProt O00255).
T1 sequence: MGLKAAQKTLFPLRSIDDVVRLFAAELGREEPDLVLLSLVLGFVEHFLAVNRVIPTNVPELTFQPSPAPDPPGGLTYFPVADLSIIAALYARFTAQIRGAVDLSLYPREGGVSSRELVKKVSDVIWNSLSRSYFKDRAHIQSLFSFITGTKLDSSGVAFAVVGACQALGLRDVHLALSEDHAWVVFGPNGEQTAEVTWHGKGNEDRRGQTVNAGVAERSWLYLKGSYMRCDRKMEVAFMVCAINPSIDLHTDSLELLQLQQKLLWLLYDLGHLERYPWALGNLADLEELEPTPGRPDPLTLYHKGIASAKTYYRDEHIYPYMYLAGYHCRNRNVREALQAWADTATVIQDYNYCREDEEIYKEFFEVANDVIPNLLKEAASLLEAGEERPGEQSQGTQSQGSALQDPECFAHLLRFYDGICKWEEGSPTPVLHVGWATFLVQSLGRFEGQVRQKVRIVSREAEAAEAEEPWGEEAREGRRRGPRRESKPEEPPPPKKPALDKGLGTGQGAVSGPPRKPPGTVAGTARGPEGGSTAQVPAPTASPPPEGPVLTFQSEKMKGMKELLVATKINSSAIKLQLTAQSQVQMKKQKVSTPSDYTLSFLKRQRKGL
Nature of the assay: co-IP; MEN1-KO NCI-H460 cells infected with vector, WT-Menin or Mut-Menin M278W lentivirus; NP-40 lysis buffer, 1 mg protein; IP with 3x Flag-menin or IgG antibodies overnight at 4 C, protein A/G magnetic beads; immunoblot for menin, MLL1 and LEDGF.

The next assay concerns the target T2, WT Menin-Flag (UniProt O00255).
T2 sequence: T1 sequence with W278M
The assay is described as above.

Turning to “lens epithelium-derived growth factor (from UniProt O75475 1-530)”, the binding entry (in assay [1]; in the assay with WT Menin-Flag) was “binds” each time.
Regarding “mixed lineage leukemia protein 1 (from UniProt Q03164 1-3969)”, the binding entry is reported as “no binding” in assay [1] and “binds” in the assay with WT Menin-Flag.
